The supplement of paper PMC10849652
The other results are listed elsewhere or left out.

By UniProt entry, the sequences of proteins in these tests, tags left out. Where a name states a change or a piece, a line headed by the entry shows the natural chain unless it says otherwise.
UniProt Q5VTR2, whole entry, looked up: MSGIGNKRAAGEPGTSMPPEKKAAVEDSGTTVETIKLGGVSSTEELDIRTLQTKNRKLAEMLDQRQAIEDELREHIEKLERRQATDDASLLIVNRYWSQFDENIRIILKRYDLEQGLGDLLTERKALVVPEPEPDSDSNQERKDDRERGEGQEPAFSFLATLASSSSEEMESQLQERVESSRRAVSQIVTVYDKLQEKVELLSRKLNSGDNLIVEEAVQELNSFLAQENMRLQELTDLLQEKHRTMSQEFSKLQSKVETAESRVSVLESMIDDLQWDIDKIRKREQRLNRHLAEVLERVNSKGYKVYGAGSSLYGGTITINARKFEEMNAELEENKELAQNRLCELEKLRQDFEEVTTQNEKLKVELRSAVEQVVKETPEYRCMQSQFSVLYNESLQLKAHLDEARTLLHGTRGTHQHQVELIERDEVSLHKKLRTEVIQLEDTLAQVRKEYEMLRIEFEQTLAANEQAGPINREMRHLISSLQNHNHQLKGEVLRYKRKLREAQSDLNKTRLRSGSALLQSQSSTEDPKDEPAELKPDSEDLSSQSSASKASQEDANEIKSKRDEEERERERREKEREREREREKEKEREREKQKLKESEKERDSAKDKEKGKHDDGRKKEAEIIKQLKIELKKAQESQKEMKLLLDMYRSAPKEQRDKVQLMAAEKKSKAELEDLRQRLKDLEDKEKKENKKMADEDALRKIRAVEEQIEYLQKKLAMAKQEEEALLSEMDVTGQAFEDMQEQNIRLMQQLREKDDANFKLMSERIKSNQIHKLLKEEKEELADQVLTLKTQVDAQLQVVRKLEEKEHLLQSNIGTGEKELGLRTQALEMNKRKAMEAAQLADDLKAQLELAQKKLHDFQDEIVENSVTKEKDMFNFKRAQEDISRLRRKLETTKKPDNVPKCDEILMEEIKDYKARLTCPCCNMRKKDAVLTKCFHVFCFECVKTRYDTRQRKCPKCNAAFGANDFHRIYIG
UniProt Q9Y508: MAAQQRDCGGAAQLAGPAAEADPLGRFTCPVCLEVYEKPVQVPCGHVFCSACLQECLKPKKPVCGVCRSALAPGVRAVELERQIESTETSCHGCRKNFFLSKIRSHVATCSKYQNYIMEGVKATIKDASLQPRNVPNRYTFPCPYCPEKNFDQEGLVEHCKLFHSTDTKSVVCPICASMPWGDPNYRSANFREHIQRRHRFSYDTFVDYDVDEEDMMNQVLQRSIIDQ
UniProt Q9NPQ8: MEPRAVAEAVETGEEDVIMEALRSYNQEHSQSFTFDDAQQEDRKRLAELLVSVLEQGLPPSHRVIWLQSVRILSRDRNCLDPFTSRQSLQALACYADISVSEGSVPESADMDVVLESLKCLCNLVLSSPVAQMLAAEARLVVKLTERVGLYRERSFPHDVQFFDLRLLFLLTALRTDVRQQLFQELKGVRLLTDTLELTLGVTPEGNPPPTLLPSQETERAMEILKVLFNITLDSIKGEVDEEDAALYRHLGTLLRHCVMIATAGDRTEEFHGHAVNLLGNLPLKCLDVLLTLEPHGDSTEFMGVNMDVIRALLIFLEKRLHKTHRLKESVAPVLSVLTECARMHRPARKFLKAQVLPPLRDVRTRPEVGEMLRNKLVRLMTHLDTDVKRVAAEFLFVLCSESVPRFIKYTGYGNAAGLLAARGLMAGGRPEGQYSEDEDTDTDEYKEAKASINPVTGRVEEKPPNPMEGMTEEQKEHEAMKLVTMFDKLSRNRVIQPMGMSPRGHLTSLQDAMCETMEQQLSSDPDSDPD
UniProt Q9NTX7: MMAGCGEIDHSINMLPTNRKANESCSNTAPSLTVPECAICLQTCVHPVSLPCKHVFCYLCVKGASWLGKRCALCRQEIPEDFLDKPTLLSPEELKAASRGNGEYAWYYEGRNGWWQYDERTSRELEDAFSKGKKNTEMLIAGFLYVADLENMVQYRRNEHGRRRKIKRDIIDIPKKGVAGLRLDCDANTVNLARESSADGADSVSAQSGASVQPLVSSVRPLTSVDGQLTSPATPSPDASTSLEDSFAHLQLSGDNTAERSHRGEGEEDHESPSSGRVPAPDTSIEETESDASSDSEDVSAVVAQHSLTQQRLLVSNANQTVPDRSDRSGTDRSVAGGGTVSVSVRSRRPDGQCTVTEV
UniProt Q96TC7: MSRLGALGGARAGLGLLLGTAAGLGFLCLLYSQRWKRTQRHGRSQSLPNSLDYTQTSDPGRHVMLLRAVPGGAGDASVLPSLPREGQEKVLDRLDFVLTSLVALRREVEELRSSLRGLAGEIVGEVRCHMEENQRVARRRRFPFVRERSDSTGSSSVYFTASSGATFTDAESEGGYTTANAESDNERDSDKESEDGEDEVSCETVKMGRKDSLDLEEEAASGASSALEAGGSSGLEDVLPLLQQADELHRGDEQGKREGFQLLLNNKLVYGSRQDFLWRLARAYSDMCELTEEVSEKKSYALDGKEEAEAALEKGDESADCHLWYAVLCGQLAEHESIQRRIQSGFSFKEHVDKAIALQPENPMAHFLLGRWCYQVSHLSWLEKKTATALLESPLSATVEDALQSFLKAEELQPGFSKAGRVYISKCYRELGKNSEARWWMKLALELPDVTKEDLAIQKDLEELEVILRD
UniProt Q9NWS8: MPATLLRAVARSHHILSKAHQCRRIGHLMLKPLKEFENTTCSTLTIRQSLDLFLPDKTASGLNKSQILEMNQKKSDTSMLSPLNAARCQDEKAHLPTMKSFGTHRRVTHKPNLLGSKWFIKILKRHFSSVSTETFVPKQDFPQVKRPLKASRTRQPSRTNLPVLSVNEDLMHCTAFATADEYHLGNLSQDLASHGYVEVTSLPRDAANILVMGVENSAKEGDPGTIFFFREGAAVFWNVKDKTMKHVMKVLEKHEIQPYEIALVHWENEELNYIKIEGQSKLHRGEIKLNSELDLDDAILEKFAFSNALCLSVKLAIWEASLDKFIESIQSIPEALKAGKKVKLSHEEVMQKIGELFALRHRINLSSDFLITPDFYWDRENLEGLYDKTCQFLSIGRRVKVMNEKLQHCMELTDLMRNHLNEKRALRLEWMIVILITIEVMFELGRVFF
UniProt Q13546: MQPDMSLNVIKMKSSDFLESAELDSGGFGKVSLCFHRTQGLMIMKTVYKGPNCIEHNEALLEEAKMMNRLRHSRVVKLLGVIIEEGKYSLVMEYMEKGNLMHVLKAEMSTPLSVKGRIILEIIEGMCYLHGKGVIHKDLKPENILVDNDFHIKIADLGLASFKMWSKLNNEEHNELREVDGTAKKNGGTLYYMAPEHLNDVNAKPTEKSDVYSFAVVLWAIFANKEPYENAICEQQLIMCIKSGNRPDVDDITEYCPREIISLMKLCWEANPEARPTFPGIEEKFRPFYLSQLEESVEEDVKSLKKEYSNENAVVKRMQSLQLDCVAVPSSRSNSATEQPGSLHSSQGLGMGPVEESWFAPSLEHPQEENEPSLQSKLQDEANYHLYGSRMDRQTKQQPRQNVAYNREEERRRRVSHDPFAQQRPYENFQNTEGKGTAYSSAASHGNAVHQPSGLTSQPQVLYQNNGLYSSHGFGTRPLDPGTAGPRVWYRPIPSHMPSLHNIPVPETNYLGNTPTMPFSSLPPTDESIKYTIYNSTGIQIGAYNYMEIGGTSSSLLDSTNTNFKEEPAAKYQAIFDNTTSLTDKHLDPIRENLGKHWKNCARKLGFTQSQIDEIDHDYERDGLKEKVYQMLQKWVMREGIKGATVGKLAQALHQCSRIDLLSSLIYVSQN
UniProt Q6NUQ1: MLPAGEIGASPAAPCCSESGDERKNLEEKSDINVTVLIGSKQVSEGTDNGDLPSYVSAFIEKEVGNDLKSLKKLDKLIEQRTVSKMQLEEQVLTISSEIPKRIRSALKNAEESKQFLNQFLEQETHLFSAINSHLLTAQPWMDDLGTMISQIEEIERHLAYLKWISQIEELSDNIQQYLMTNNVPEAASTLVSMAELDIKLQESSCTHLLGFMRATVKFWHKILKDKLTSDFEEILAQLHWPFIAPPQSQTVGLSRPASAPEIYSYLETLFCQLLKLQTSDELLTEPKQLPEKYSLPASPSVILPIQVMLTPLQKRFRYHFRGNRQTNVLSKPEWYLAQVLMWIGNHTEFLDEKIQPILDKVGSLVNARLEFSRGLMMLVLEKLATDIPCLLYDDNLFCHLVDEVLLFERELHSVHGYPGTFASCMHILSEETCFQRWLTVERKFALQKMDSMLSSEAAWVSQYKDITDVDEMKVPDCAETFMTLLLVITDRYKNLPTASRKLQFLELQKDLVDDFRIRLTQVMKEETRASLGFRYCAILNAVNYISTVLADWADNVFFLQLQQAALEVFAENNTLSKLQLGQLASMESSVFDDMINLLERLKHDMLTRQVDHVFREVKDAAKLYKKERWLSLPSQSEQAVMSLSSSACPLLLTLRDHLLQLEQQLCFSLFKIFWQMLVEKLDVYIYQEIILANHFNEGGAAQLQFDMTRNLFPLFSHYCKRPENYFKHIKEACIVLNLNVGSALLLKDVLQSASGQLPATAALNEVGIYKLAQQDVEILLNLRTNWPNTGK
UniProt O43148, whole entry, looked up: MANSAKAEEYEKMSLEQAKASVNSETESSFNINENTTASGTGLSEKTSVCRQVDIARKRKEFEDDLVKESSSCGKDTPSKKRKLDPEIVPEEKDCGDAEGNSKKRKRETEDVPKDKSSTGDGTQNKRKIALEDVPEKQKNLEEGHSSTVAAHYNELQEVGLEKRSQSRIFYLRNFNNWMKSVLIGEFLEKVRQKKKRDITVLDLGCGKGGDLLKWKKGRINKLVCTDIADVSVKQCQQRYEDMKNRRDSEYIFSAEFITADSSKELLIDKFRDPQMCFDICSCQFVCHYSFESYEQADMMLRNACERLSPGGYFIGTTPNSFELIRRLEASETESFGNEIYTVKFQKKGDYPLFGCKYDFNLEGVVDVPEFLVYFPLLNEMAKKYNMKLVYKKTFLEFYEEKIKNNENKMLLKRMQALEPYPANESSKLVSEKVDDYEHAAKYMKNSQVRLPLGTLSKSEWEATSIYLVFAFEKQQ
UniProt Q05823: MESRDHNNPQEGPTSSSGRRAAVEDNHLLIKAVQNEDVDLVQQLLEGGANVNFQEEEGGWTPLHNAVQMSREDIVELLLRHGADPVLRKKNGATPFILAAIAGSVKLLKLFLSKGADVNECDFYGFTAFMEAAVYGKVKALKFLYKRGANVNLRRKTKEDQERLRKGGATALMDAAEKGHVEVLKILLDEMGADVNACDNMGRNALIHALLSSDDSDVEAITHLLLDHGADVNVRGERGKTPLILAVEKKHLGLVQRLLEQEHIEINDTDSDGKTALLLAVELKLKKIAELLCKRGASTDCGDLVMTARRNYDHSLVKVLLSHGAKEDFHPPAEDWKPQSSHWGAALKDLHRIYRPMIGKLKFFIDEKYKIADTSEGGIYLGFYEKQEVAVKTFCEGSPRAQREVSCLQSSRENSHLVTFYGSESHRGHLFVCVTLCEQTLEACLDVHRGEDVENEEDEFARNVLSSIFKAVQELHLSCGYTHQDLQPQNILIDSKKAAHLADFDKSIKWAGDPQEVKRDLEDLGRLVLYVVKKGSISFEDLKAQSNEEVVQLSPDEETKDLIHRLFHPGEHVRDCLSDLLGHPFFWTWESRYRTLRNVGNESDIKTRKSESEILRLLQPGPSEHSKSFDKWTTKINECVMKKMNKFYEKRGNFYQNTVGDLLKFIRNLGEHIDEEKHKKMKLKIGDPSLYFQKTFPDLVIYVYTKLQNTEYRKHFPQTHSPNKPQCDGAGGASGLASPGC

Experiments:
Test in all cases: log2 fold change, soluble protein after heating vs DMSO (PISA); higher = thermal stabilisation; K562 lysate, 10 uM; active = over 0.2 and 3.5 SD of the protein, either way, in both replicates (recomputed)
erlotinib = compound: C#Cc1cccc(Nc2ncnc3cc(OCCOC)c(OCCOC)cc23)c1 [erlotinib]
Summary of the method: (§1)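 Quantification was by TMTpro 16plex LC-MS/MS with equalised channel sums, applied to the supernatant after 21,000xg for 90 min. Samples were crude K562 extract at 1 mg/mL protein in PBS pH 7.4 with 1 mM MgCl2, treated with 10 μM compound for 30 min, heated for 3 min across 48°C-58°C, pooled and brought to 0.5% NP-40 at 4°C. Values are log-two fold changes in thermal stability relative to solvent controls, from duplicates.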

[1] = compound: C/C(=N\NC(=O)C1=CC(=CC=C1)S(=O)(=O)N2CCOCC2)/C3=C(C=CC(=C3)Cl)O
Summary of the method: as §1

[2] = compound: C1=CC(=CC=C1C2=NC3=C(N2)C=C(C=C3)C(=O)N)OC4=CC=C(C=C4)Cl
Summary of the method: as §1

[3] = compound: C1=CC2=C(C=CC(=C2)/C=C\3/C(=O)NC(=NCC4=CC=CS4)S3)N=C1
Summary of the method: as §1

[4] = compound: C1=CC2=NC=CN=C2C=C1/C=C/3\C(=O)NC(=O)S3
Summary of the method: as §1

[5] = compound: C1=CC=C(C=C1)C2=NC(=C(N2)C3=CC=NC=C3)C4=CC(=C(C=C4)Cl)O
Summary of the method: as §1

[6] = compound: C1=CC=C2C(=C1)C3=NNC4=CC=CC(=C43)C2=O
Summary of the method: as §1

[7] = compound: C1CCN(C1)C(=O)NC2=CC=CC(=C2)NC3=NC=C(C(=N3)NCCC4=CN=CN4)Br
Summary of the method: as §1

[8] = compound: C1CN(CCC1(CC2=CC=C(C=C2)Cl)N)C3=NC=NC4=C3C=CN4
Summary of the method: as §1

IRAK-1-4 Inhibitor I = compound: C1COCCN1CCN2C3=CC=CC=C3N=C2NC(=O)C4=CC(=CC=C4)[N+](=O)[O-] [IRAK-1-4 Inhibitor I]
Summary of the method: as §1

ibrutinib = compound: C=CC(=O)N1CCC[C@@H](n2nc(-c3ccc(Oc4ccccc4)cc3)c3c(N)ncnc32)C1 [ibrutinib]
Summary of the method: as §1

[9] = compound: CC(=O)c1cnc2ccc(-c3cc(Cl)c(O)c(Cl)c3)nc2c1N[C@H]1CC[C@H](CN(C)C)CC1
Summary of the method: as §1

ralimetinib = compound: CC(C)(C)Cn1c(N)nc2ccc(-c3[nH]c(C(C)(C)C)nc3-c3ccc(F)cc3)nc21 [ralimetinib]
Summary of the method: as §1

[10] = compound: CC(C)(O)CC(=O)NCCn1ccc2ncnc(Nc3ccc(Oc4cccc(C(F)(F)F)c4)c(Cl)c3)c21
Summary of the method: as §1

[11] = compound: CC(C)C1=C2N=C(C=C(N2N=C1)NCC3=CC=CC=C3)NCCCCCCN
Summary of the method: as §1

[12] = compound: CC1=C(C(CC(=O)N1)C2=CC=C(C=C2)C(F)(F)F)C(=O)NC3=C(C=C4C(=C3)C=NN4)F
Summary of the method: as §1

[13] = compound: CC1=C(C2=C(C=C1)C(=O)C3=CC=CC=C3N2CCCN)C
Summary of the method: as §1

[14] = compound: CC1=C(C=C(C=C1)NC(=O)C2=CC(=CC=C2)C(C)(C)C#N)NC3=CC4=C(C=C3)N=CN(C4=O)C
Summary of the method: as §1

[15] = compound: CC1=C(C=C(C=C1)NC(=O)C2=CC(=CC=C2)N(C)C)NC(=O)C3=CC=C(C=C3)O
Summary of the method: as §1

[16] = compound: CC1=CC=C(C=C1)SC2=C3C=C(SC3=CN=C2)C(=O)N
Summary of the method: as §1

Measured: log2 fold change

RPL35A (UniProt P18077)
inactive: erlotinib 0.005 | [1] -0.089 | [2] -0.025 | [3] 0.004 | [4] -0.041 | [5] 0 | [6] -0.014 | [7] 0.019 | [8] -0.042 | IRAK-1-4 Inhibitor I 0.021 | ibrutinib -0.038 | [9] -0.023 | ralimetinib -0.027 | [10] -0.026 | [11] 0.021 | [12] -0.053 | [13] -0.067 | [14] -0.009 | [15] 0.032 | [16] 0.045

RNF20 (UniProt Q5VTR2)
inactive: erlotinib -0.003 | [1] 0.019 | [2] 0.018 | [3] 0.005 | [4] -0.027 | [5] 0.024 | [6] -0.017 | [7] -0.006 | [8] -0.007 | IRAK-1-4 Inhibitor I 0.011 | ibrutinib 0.012 | [9] -0.002 | ralimetinib -0.002 | [10] -0.038 | [11] -0.011 | [12] -0.013 | [13] 0.003 | [14] -0.006 | [15] -0.002 | [16] -0.015

RIF1 (UniProt Q5UIP0)
inactive: erlotinib 0.027 | [1] -0.032 | [2] 0.015 | [3] 0.016 | [4] -0.046 | [5] 0.017 | [6] -0.051 | [7] -0.023 | [8] 0.035 | IRAK-1-4 Inhibitor I -0.001 | ibrutinib 0.002 | [9] 0.019 | ralimetinib -0.001 | [10] -0.065 | [11] -0.009 | [12] 0.076 | [13] -0.011 | [14] 0 | [15] 0.038 | [16] 0.012

RPL23A (UniProt P62750)
inactive: erlotinib -0.006 | [1] 0.011 | [2] -0.051 | [3] -0.012 | [4] 0 | [5] 0.024 | [6] 0.044 | [7] 0.022 | [8] 0.001 | IRAK-1-4 Inhibitor I 0 | ibrutinib -0.025 | [9] -0.009 | ralimetinib 0.004 | [10] -0.006 | [11] 0.051 | [12] -0.045 | [13] -0.017 | [14] -0.027 | [15] -0.007 | [16] 0.035

RNF114 (UniProt Q9Y508)
inactive: erlotinib -0.009 | [1] -0.011 | [2] 0.017 | [3] 0.015 | [4] 0.007 | [5] -0.006 | [6] 0.006 | [7] 0.005 | [8] 0.013 | IRAK-1-4 Inhibitor I -0.012 | ibrutinib 0.012 | [9] -0.01 | ralimetinib 0 | [10] 0.001 | [11] -0.042 | [12] -0.024 | [13] 0.019 | [14] 0.038 | [15] -0.045 | [16] -0.019

RPL18A (UniProt Q02543)
inactive: erlotinib -0.02 | [1] -0.094 | [2] -0.003 | [3] -0.059 | [4] 0.009 | [5] 0.024 | [6] -0.023 | [7] 0.023 | [8] -0.003 | IRAK-1-4 Inhibitor I -0.002 | ibrutinib -0.02 | [9] 0.002 | ralimetinib -0.018 | [10] -0.017 | [11] 0.034 | [12] 0.005 | [13] -0.012 | [14] -0.054 | [15] -0.015 | [16] 0.012

RPL26 (UniProt P61254)
inactive: erlotinib -0.001 | [1] -0.089 | [2] 0 | [3] -0.003 | [4] -0.05 | [5] 0.18 | [6] 0.034 | [7] 0.066 | [8] -0.002 | IRAK-1-4 Inhibitor I -0.198 | ibrutinib -0.048 | [9] -0.01 | ralimetinib -0.18 | [10] 0.06 | [11] -0.011 | [12] 0.076 | [13] 0.011 | [14] -0.01 | [15] 0.094 | [16] -0.003

RIC8A (UniProt Q9NPQ8)
inactive: erlotinib 0.052 | [1] -0.159 | [2] -0.035 | [3] 0.031 | [4] 0.012 | [5] -0.024 | [6] -0.06 | [7] 0.01 | [8] 0.01 | IRAK-1-4 Inhibitor I -0.013 | ibrutinib 0.008 | [9] -0.002 | ralimetinib 0.006 | [10] 0.015 | [11] -0.043 | [12] 0.004 | [13] 0.015 | [14] 0.029 | [15] 0.007 | [16] -0.004

RNF146 (UniProt Q9NTX7)
inactive: erlotinib -0.019 | [1] 0.01 | [2] 0.048 | [3] 0.025 | [4] 0.007 | [5] 0.07 | [6] -0.018 | [7] 0.003 | [8] 0.021 | IRAK-1-4 Inhibitor I 0.019 | ibrutinib 0.045 | [9] 0.05 | ralimetinib -0.025 | [10] -0.048 | [11] -0.072 | [12] -0.07 | [13] 0.04 | [14] -0.006 | [15] -0.03 | [16] -0.047

RMDN3 (UniProt Q96TC7)
inactive: erlotinib -0.021 | [1] 0.198 | [2] -0.081 | [3] -0.01 | [4] -0.008 | [5] 0.02 | [6] -0.015 | [7] 0.007 | [8] 0.009 | IRAK-1-4 Inhibitor I 0.025 | ibrutinib 0.015 | [9] -0.012 | ralimetinib -0.009 | [10] 0.007 | [11] 0.007 | [12] 0.013 | [13] -0.001 | [14] 0.02 | [15] 0.011 | [16] 0.011

RPL10 (UniProt F8W7C6)
inactive: erlotinib 0.027 | [1] -0.17 | [2] -0.016 | [3] -0.092 | [4] 0.036 | [5] -0.132 | [6] -0.131 | [7] 0.017 | [8] -0.005 | IRAK-1-4 Inhibitor I -0.079 | ibrutinib 0.014 | [9] 0.023 | ralimetinib 0.067 | [10] -0.155 | [11] -0.024 | [12] -0.032 | [13] -0.154 | [14] -0.004 | [15] -0.055 | [16] -0.061

RMND1 (UniProt Q9NWS8)
inactive: erlotinib -0.042 | [1] -0.001 | [2] -0.007 | [3] 0.021 | [4] -0.022 | [5] -0.021 | [6] -0.006 | [7] 0.003 | [8] 0.051 | IRAK-1-4 Inhibitor I 0.008 | ibrutinib 0.01 | [9] 0.007 | ralimetinib -0.032 | [10] 0.038 | [11] -0.035 | [12] 0.011 | [13] 0 | [14] 0.054 | [15] 0.061 | [16] -0.001

RIPK1 (UniProt Q13546)
inactive: erlotinib -0.026 | [1] -0.01 | [2] -0.017 | [3] -0.022 | [4] -0.015 | [5] 0.008 | [6] 0.08 | [7] 0.031 | [8] -0.057 | IRAK-1-4 Inhibitor I 0 | ibrutinib -0.02 | [9] -0.025 | ralimetinib -0.009 | [10] -0.011 | [11] 0.018 | [12] 0.001 | [13] -0.013 | [14] 0.001 | [15] -0.02 | [16] 0.003

RINT1 (UniProt Q6NUQ1)
inactive: erlotinib 0.056 | [1] 0.029 | [2] -0.01 | [3] 0.012 | [4] 0.03 | [5] -0.042 | [6] -0.048 | [7] -0.029 | [8] 0.067 | IRAK-1-4 Inhibitor I 0.074 | ibrutinib 0.011 | [9] 0.07 | ralimetinib 0.05 | [10] -0.094 | [11] 0.016 | [12] -0.066 | [13] -0.064 | [14] -0.02 | [15] 0.012 | [16] 0.016

RNMT isoform 2 (UniProt O43148)
inactive: erlotinib -0.002 | [1] 0.001 | [2] 0.032 | [3] 0.038 | [4] 0.007 | [5] -0.003 | [6] -0.043 | [7] -0.025 | [8] 0.008 | IRAK-1-4 Inhibitor I -0.022 | ibrutinib -0.01 | [9] -0.024 | ralimetinib -0.012 | [10] -0.026 | [11] -0.09 | [12] 0.007 | [13] 0.013 | [14] 0.018 | [15] 0.034 | [16] 0.003

RNASEL (UniProt Q05823)
inactive: erlotinib 0.103 | [1] -0.025 | [2] -0.019 | [3] -0.01 | [4] 0.099 | [5] 0.009 | [6] -0.062 | [7] -0.031 | [8] 0.005 | IRAK-1-4 Inhibitor I 0.006 | ibrutinib -0.072 | [9] -0.033 | ralimetinib 0.037 | [10] -0.034 | [11] 0 | [12] -0.023 | [13] 0.001 | [14] 0.01 | [15] 0.013 | [16] 0.027
